According to US20040209897A1 (Pharmacia Corporation, priority 2002, published 2004):
Where a name gives a salt, the structure may show the parent alone.

Chains of the proteins cited; added tags and fusions are not shown.
UniProt P49137, whole entry, species assumed: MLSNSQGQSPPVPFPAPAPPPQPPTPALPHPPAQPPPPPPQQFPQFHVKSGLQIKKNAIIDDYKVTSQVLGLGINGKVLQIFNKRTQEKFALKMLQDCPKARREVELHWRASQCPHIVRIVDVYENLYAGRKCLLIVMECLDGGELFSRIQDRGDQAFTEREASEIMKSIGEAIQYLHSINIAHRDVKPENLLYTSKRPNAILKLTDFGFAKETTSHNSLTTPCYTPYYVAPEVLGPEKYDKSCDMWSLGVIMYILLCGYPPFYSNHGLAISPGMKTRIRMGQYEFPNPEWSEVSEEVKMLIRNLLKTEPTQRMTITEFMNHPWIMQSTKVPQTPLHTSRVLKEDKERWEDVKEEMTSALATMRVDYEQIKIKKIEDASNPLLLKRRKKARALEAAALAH

Biological target: Recombinant MAPKAPK2 (MK-2) (Homo sapiens, UniProt P49137)
Assay: Determination of MK-2 IC50 (HSP-peptide phosphorylation, anion exchange resin capture assay)
Format: biochemical
Conditions: MAPKAP2 Avg. IC50

## O=C(NC1CCCC1)c1ccc(-c2cc(-c3cc4c([nH]3)CCNC4=O)ccn2)cc1 [Example 7, 2-(2,3′-bipyridin-4-yl)-1,5,6,7-tetrahydro-4H-pyrrolo[3,2-c]pyridin-4-one trifluoroacetate]
  IC50: 8 nM
